Measurements from PubChem BioAssay AID540275 (National Center for Advancing Translational Sciences (NCATS), 2011).
Out of some 320,000 compounds screened, about 620 (0.19%) were called active. Inconclusive means that the source gave no clear call. Such entries were picked first, then a sample of the others. Rule as the data show it: active = activation above about 80%; inconclusive = between about 30% and that limit; inactive = weaker than that.

By UniProt entry, the sequences of proteins in these tests, tags left out.
UniProt Q8NER1, whole entry, looked up: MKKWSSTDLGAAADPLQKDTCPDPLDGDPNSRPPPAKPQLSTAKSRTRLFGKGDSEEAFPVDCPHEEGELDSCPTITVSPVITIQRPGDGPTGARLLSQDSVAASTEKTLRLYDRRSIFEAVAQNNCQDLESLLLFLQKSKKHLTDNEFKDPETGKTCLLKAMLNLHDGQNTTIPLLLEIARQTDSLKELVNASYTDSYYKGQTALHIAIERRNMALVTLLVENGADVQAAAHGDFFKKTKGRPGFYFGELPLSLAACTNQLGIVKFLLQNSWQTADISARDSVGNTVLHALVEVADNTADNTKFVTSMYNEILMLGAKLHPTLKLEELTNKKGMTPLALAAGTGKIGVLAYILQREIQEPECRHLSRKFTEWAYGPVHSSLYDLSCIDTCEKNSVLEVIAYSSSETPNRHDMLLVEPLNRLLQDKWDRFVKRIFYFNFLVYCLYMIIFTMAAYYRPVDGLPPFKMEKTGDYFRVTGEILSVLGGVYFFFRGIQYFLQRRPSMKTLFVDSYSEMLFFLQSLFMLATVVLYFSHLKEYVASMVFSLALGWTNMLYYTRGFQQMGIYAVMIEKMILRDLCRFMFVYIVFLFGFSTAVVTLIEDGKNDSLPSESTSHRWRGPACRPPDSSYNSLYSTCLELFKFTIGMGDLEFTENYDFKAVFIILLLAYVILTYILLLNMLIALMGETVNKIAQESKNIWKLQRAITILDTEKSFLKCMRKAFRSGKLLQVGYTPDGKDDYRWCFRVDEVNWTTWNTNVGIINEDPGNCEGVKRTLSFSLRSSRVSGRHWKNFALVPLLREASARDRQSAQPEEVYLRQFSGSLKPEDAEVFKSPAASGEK

molecular target: Transient receptor potential cation channel subfamily V member 1 (Homo sapiens) (UniProt Q8NER1); experiment: HTS Assay for Compounds that Act as Agonists of the Vanilloid Receptor 1; conditions: TRPV1-expressing cells, Fluo-8 calcium influx, agonist mode; at 8.33 µM, hits give high values; also: 0% is about no effect
Summary of the method: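 Fluo-8 calcium influx in TRPV1-expressing cells, kinetic read (ex 480/em 520 nm). Compound added and read 3 min for agonist activity, followed by capsaicin at EC20 final and 2 min further read for enhancement.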

SMILES | activation
Cc1nc(NC2=NCN(CCc3ccccc3)CN2)nc2ccccc12 | inactive: -1.25%
Cn1ncc2c(Nc3ccc(Cl)c(Cl)c3)ncnc21 | inconclusive: 75.4%
Cc1ccc(-n2nnnc2SCc2ccccn2)cc1C | inconclusive: 53.2%
COC(=O)c1ccc(C(=O)OC)c(NC(=O)CCc2ccc(C)o2)c1 | inconclusive: 50.1%
Cc1ccc2nc(-c3ccncc3)c(NC3CCCC3)n2c1 | inconclusive: 34.6%
O=C(COc1ccc2c(c1)C(=O)CC1(CCCCC1)O2)NCc1ccccc1 | inconclusive: 57.3%
CN1/C(=C\C=C(/C#N)C(=O)Nc2ccccc2F)C(C)(C)c2ccccc21 | inconclusive: 42%
CN(C)C(=O)CSc1nnc([C@H](Cc2c[nH]c3ccccc23)NC(=O)OC(C)(C)C)o1 | inconclusive: 46.7%
COc1ccccc1NC(=O)N(Cc1cc2cc(OC)c(OC)cc2[nH]c1=O)CC1CCCO1 (stereo not given) | inactive: -0.186%
O=C(CN(C1CCCCC1)S(=O)(=O)c1ccc(Br)cc1)NCc1ccncc1 | inconclusive: 39.8%
C=C(C)C1CC=C(C)/C(=N/NC(=O)c2ccc(NC(=O)CCC)cc2)C1 (stereo not given) | inactive: 6.08%
COc1cccc(NC(=O)CN(C)C(=O)CNC(=O)c2ccc(Oc3ccccc3)cc2)c1 | inconclusive: 54%
Cc1ccccc1CNC(=O)c1ccc2ccccc2n1 | inconclusive: 33.8%
O=C(c1ccc(NC(=O)C2(c3ccccc3)CCCC2)cc1)N1CCOCC1 | inconclusive: 39.6%
CCNC(=O)C1CC(=O)N(CCCc2ccccc2)C(=Nc2ccccc2)S1 (stereo not given) | inconclusive: 58.9%
Clc1ccc(C2=NN=C3COc4ccccc4N3C2)cc1 | inconclusive: 77.8%
S=C(NCc1ccco1)N1CCN(c2cccc(Cl)c2)CC1 | inconclusive: 40.7%
Cc1ccc(OCC(=O)N2CCc3ccccc3C2)c(Br)c1 | inconclusive: 44%
Cc1ccc(COc2ccsc2-c2n[nH]c(=S)n2C)cc1 | inactive: 28.6%
O=C(CSc1nc(-c2ccc(F)cc2)cc(C(F)(F)F)n1)NCc1cccs1 | inconclusive: 54%
COc1ccc(/C=C/C(=O)c2ccncc2)c2ccccc12 | inconclusive: 51.9%
Cc1cccc(Nc2ccccc2C(=O)OCC(=O)NCc2ccco2)c1C | inconclusive: 48.6%
O=C(Nc1cc(S(=O)(=O)N2CCCCC2)ccc1N1CCCCC1)C1CC1 | inconclusive: 60%
Nc1c(C(=O)C2CC2)sc2nc(-c3ccccc3)cc(C(F)(F)F)c12 | inactive: 20.7%
Cc1ccc(S(=O)(=O)c2n[nH]n3c2nc(=O)c2ccccc23)cc1 | inactive: 0.391%

Single values from the entries so far.
Under activation, COc1cccc(NC(=O)CN(C)C(=O)CNC(=O)c2ccc(Oc3ccccc3)cc2)c1 is entered as inconclusive: 54%
Under activation, COc1ccccc1NC(=O)N(Cc1cc2cc(OC)c(OC)cc2[nH]c1=O)CC1CCCO1 (stereo not given) is entered as inactive: -0.186%
